Test results reported in publication PMC9772228, “Structure of a RecT/Redβ family recombinase in complex with a duplex intermediate of DNA annealing”.
Residue numbers refer to the chain shown, from its start. For part of these data: A weaker result is weaker than the reference pair of the same experiment. Tags and fusion partners may be left off the protein sequences shown. For part of these data: The exact form of at least one protein or probe is not confirmed. For part of these data: At least one verdict was read from the data and is not stated in words by the source.

Tests used:
Assay in all cases: EMSA
Conditions in all cases: EMSA: PBS pH 7.4 (or KH2PO4/10 mM MgCl2 pH 6.0), 3.6 or 5 uM protein, 25 uM nt DNA, 37 C 15 min per strand, 0.8% agarose 1x TBE, recombinant protein, residues 1-271, protein details: N-terminal 6His vector tag (20 aa) retained
[1] = biological target: T1, LiRecT K111A (Listeria innocua CLIP 11262) (UniProt Q92FL9)
T1 sequence (looked up): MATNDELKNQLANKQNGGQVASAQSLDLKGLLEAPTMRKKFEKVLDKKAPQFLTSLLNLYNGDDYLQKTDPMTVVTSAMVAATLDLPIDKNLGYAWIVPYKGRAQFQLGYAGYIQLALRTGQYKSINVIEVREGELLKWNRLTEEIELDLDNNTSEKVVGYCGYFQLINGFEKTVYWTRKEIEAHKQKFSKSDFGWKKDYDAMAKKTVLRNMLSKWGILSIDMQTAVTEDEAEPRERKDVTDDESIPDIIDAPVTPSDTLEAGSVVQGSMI

[2] = biological target: T2, LiRecT I126A (Listeria innocua CLIP 11262) (UniProt Q92FL9)
T2 sequence (looked up): T1 sequence (looked up) with A111K, I126A

[3] = biological target: T3, LiRecT Y110A (Listeria innocua CLIP 11262) (UniProt Q92FL9)
T3 sequence (looked up): T1 sequence (looked up) with Y110A, A111K

[4] = biological target: T4, LiRecT I218E (text: I128E) (Listeria innocua CLIP 11262) (UniProt Q92FL9)
T4 sequence (looked up): T1 sequence (looked up) with A111K, I218E

[5] = biological target: T5, LiRecT H185A (Listeria innocua CLIP 11262) (UniProt Q92FL9)
T5 sequence (looked up): T1 sequence (looked up) with A111K, H185A

[6] = biological target: T6, LiRecT K206A (Listeria innocua CLIP 11262) (UniProt Q92FL9)
T6 sequence (looked up): T1 sequence (looked up) with A111K, K206A

[7] = biological target: T7, LiRecT W216A (Listeria innocua CLIP 11262) (UniProt Q92FL9)
T7 sequence (looked up): T1 sequence (looked up) with A111K, W216A

[8] = biological target: T8, LiRecT N211A (Listeria innocua CLIP 11262) (UniProt Q92FL9)
T8 sequence (looked up): T1 sequence (looked up) with A111K, N211A

[9] = label: 5'-Cy5, single-stranded DNA
[10] = label: 5'-Cy3, single-stranded DNA

“CCATCCGCAAAAATCGAGCTATGCAGGGCGATTCTGCTCTAAGCCATCCG [Cy5-50mer]”: binds more weakly [1, 9]; binds [2, 9]; binds [3, 9]. “CCATCCGCAAAAATCGAGCTATGCAGGGCGATTCTGCTCTAAGCCATCCG [Cy5-50mer]”: binds more weakly ([4]; disrupted almost completely, label: 5'-Cy5, single-stranded DNA); binds [5, 9]; binds [6, 9]. “CCATCCGCAAAAATCGAGCTATGCAGGGCGATTCTGCTCTAAGCCATCCG [Cy5-50mer]”: binds [7, 9]; binds [8, 9].

“GCGGATGGCTTAGAGCAGAATCGCCCTGCATAGCTCGATTTTTGCGGATG / CCATCCGCAAAAATCGAGCTATGCAGGGCGATTCTGCTCTAAGCCATCCG [50-mer duplex intermediate (sequential addition)]”: binds more weakly ([1]; label: 5'-Cy3,5'-Cy5); binds ([2]; label: 5'-Cy3,5'-Cy5); binds ([3]; label: 5'-Cy3,5'-Cy5). “GCGGATGGCTTAGAGCAGAATCGCCCTGCATAGCTCGATTTTTGCGGATG / CCATCCGCAAAAATCGAGCTATGCAGGGCGATTCTGCTCTAAGCCATCCG [50-mer duplex intermediate (sequential addition)]”: binds more weakly ([4]; small amount of aggregates in well, label: 5'-Cy3,5'-Cy5); binds ([5]; label: 5'-Cy3,5'-Cy5); binds ([6]; label: 5'-Cy3,5'-Cy5). “GCGGATGGCTTAGAGCAGAATCGCCCTGCATAGCTCGATTTTTGCGGATG / CCATCCGCAAAAATCGAGCTATGCAGGGCGATTCTGCTCTAAGCCATCCG [50-mer duplex intermediate (sequential addition)]”: binds ([7]; label: 5'-Cy3,5'-Cy5); binds ([8]; label: 5'-Cy3,5'-Cy5).

“GCGGATGGCTTAGAGCAGAATCGCCCTGCATAGCTCGATTTTTGCGGATG [Cy3-50mer]”: binds more weakly [1, 10]; binds [2, 10]; binds [3, 10]. “GCGGATGGCTTAGAGCAGAATCGCCCTGCATAGCTCGATTTTTGCGGATG [Cy3-50mer]”: binds more weakly ([4]; disrupted almost completely, label: 5'-Cy3, single-stranded DNA); binds [5, 10]; binds [6, 10]. “GCGGATGGCTTAGAGCAGAATCGCCCTGCATAGCTCGATTTTTGCGGATG [Cy3-50mer]”: binds [7, 10]; binds [8, 10].
